# Values from PubChem BioAssay AID504774 (Drosophila RNAi Screening Center, 2011)
# Screen: 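Fly genes whose loss alters survival after alkylation damage to DNA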 (primary screen)
# System: Drosophila Kc167 cells
# Reagents: long dsRNA against Drosophila genes, about 0.25 µg dsRNA per well
# Time to read-out: about 6 days: 3 days knock-down, then 3 days with or without MMS
# Treatment: methyl methanesulphonate 0.004% (w/v) for 3 days after knock-down
# Measured: 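ATP-dependent luminescence as a measure of live cells in MMS-exposed wells, quantile normalised within each plate, with replicate values also given as a mean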
# Direction: mean viability with MMS and viability with MMS: higher = more surviving cells after MMS
# In all, the deposit lists about 23,000 reagents; below is an unselected part of those with a known target gene and a result. 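Values are quantile-normalised luminescence on an arbitrary scale; higher means more cells surviving MMS.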 A plus sign joins genes that one reagent is predicted to hit.
target gene,amplicon,mean viability with MMS,"viability with MMS, replicate 1","viability with MMS, replicate 2"
CG7367 (GeneID 34094),DRSC03049,3.50e6,3.93e6,4.01e6
side-II (GeneID 3346206),DRSC01427,3.56e6,4.06e6,4.01e6
side-II (GeneID 3346206),DRSC01429,3.58e6,4.09e6,4.01e6
side-II (GeneID 3346206),DRSC01913,3.65e6,4.06e6,4.18e6
side-II (GeneID 3346206),DRSC01932,3.82e6,4.04e6,4.12e6
side-II (GeneID 3346206),DRSC02480,3.58e6,3.78e6,3.87e6
side-II (GeneID 3346206),DRSC22508,3.22e6,3.80e6,3.82e6
Atx2 (GeneID 41883),DRSC15727,2.52e6,3.51e6,3.51e6
Atx2 (GeneID 41883),DRSC23010,3.15e6,3.74e6,3.27e6
Meics (GeneID 39539),DRSC11413,3.36e6,3.72e6,3.85e6
comr (GeneID 37492),DRSC04138,3.57e6,4.07e6,4.04e6
Atg8a (GeneID 32001),DRSC18024,3.57e6,4.04e6,4.04e6
CG34382 (GeneID 5740788),DRSC08999,3.63e6,4.14e6,4.04e6
CG34382 (GeneID 5740788),DRSC10166,3.56e6,4.05e6,4.01e6
CG34382 (GeneID 5740788),DRSC10167,3.51e6,3.93e6,4.03e6
CG31559 (GeneID 40749),DRSC12172,3.48e6,3.97e6,3.93e6
CG31559 (GeneID 40749),DRSC12270,3.62e6,4.22e6,3.98e6
CG34301 (GeneID 5740866),DRSC12704,3.43e6,3.76e6,4.02e6
lncRNA:CR32690 (GeneID 10178944),DRSC22219,3.51e6,3.95e6,4.02e6
zetaTry (GeneID 36216),DRSC07720,3.40e6,4.06e6,3.48e6
CG14362 (GeneID 41695),DRSC14824,3.58e6,4.00e6,4.16e6
CG8952 (GeneID 32525),DRSC20133,3.52e6,3.98e6,3.86e6
CG13640 (GeneID 42967),DRSC14639,3.43e6,3.89e6,3.83e6
CG10226 (GeneID 38725),DRSC09715,3.70e6,4.32e6,4.07e6
Cpr65Au (GeneID 59158),DRSC22738,3.56e6,4.02e6,4.03e6
CG33919 (GeneID 3772720),DRSC04940,3.55e6,3.97e6,4.09e6

A portion of the results above, for reference:
target gene,amplicon,mean viability with MMS,"viability with MMS, replicate 1","viability with MMS, replicate 2"
side-II (GeneID 3346206),DRSC01932,3.82e6,4.04e6,4.12e6
side-II (GeneID 3346206),DRSC02480,3.58e6,3.78e6,3.87e6
side-II (GeneID 3346206),DRSC22508,3.22e6,3.80e6,3.82e6
Atx2 (GeneID 41883),DRSC15727,2.52e6,3.51e6,3.51e6
Atx2 (GeneID 41883),DRSC23010,3.15e6,3.74e6,3.27e6
Meics (GeneID 39539),DRSC11413,3.36e6,3.72e6,3.85e6
comr (GeneID 37492),DRSC04138,3.57e6,4.07e6,4.04e6
Atg8a (GeneID 32001),DRSC18024,3.57e6,4.04e6,4.04e6
CG34382 (GeneID 5740788),DRSC08999,3.63e6,4.14e6,4.04e6

Additional entries follow.
target gene,amplicon,mean viability with MMS,"viability with MMS, replicate 1","viability with MMS, replicate 2"
Madm (GeneID 40710),DRSC12129,3.55e6,4.05e6,4.01e6
CG31365 (GeneID 42736),DRSC15610,3.56e6,3.98e6,4.08e6
Cpr65Ec (GeneID 38775),DRSC11025,3.56e6,3.96e6,4.13e6
CG17816 (GeneID 40928),DRSC15277,3.58e6,4.20e6,3.95e6
CG17287 (GeneID 36939),DRSC06659,3.53e6,3.97e6,4.03e6
Adgf-C (GeneID 41680),DRSC16473,3.51e6,4.08e6,3.88e6
jing (GeneID 35555),DRSC04923,3.51e6,4.07e6,3.88e6
jing (GeneID 35555),DRSC04927,3.55e6,4.00e6,4.07e6
jing (GeneID 35555),DRSC05000,3.48e6,3.94e6,3.97e6
Gpdh2 (GeneID 37672),DRSC04346,3.68e6,4.36e6,3.97e6
Sec20 (GeneID 40724),DRSC12295,3.46e6,3.96e6,3.92e6
OstDelta (GeneID 37029),DRSC06980,3.53e6,4.00e6,4.01e6
CG31752 (GeneID 35143),DRSC22599,3.65e6,4.13e6,4.08e6
Usp47 (GeneID 38644),DRSC11313,3.51e6,3.99e6,3.97e6
CG5561 (GeneID 33321),DRSC00688,3.57e6,3.89e6,4.21e6
CG4199 (GeneID 31174),DRSC18519,3.54e6,3.98e6,4.05e6
CG4199 (GeneID 31174),DRSC21314,3.39e6,3.89e6,3.86e6
CG33630 (GeneID 3772504),DRSC14546,3.49e6,3.97e6,3.97e6
Pcmt (GeneID 40668),DRSC12363,3.51e6,3.96e6,4.01e6
TTLL12 (GeneID 35732),DRSC06555,3.65e6,4.14e6,4.06e6
Syx17 (GeneID 38541),DRSC08591,3.54e6,4.06e6,3.97e6
CG7071 + Muted,DRSC16189,3.44e6,3.79e6,4.03e6
ver (GeneID 39432),DRSC10125,3.52e6,4.09e6,3.89e6
CG13711 (GeneID 38576),DRSC08320,3.58e6,4.06e6,4.09e6
DCP1 (GeneID 37790),DRSC04091,3.47e6,3.93e6,3.80e6
CG6567 (GeneID 41304),DRSC16066,3.51e6,4.00e6,3.97e6
CG42673 (GeneID 39111),DRSC08989,3.53e6,4.03e6,3.98e6
CG42673 (GeneID 39111),DRSC08991,2.83e6,3.54e6,3.53e6
CG42673 (GeneID 39111),DRSC10177,3.74e6,4.22e6,4.18e6
CG42673 (GeneID 39111),DRSC10264,3.69e6,4.16e6,4.14e6
CG42673 (GeneID 39111),DRSC10353,3.80e6,4.38e6,4.15e6
CG42673 (GeneID 39111),DRSC10354,3.68e6,4.11e6,4.16e6
bdl (GeneID 33635),DRSC00271,3.54e6,4.08e6,3.95e6
zye (GeneID 40255),DRSC11784,3.75e6,4.24e6,4.14e6
CG14300 (GeneID 3346166),DRSC14779,3.49e6,3.83e6,4.10e6
CG34417 (GeneID 31591),DRSC17467,3.53e6,4.03e6,3.99e6
CG34417 (GeneID 31591),DRSC18332,3.61e6,4.07e6,4.13e6
CG34417 (GeneID 31591),DRSC18333,3.53e6,4.00e6,3.99e6
SMC2 (GeneID 36653),DRSC07544,3.55e6,4.02e6,4.02e6
Prp31 (GeneID 39655),DRSC10735,3.44e6,3.93e6,3.85e6
Or49b (GeneID 36413),DRSC07494,3.51e6,3.95e6,3.75e6
D1 (GeneID 41095),DRSC16638,3.67e6,4.15e6,4.21e6
